Test results: patent US20250075176A1, “COMPOSITIONS COMPRISING HISTONE […] INHIBITORS OR REVERSE TRANSCRIPTASE INHIBITORS AND USE THEREOF” (FOREVE LABS LTD., priority 2022, published 2025)
For at least one compound, name, drawing or mass did not settle the structure.

Key:
Assay type in all cases: cell-based, mouse
dsRNA = test: In situ staining for dsRNA in treated young oocytes; conditions: young MII oocytes, Chaetocin vs untreated control, FIG. 7C
H3K4me3 = test: In situ staining for H3K4me3 in treated young oocytes; conditions: young MI oocytes, Chaetocin 0.5 μM 18 h
Procedure: (§1) In situ immunofluorescence: Permeabilization was performed using 0.1% Triton X-100. Cells were cultured in PBS contains 5% BSA for blocking, and first and secondary antibodies were diluted in 0.1 Tween 20 (P9416)/PBS containing 5% BSA. The immune-stained cells were mounted in Vectashield (H-1000) mounting medium containing 80 nM of Hoechst (33342) and sealed on a slide using an Imaging spacer (GBL654002).
(§2) Imaging and quantification: Oocytes were imaged using the Ti-Eclipse Nikon system, with an Andor Zyla nsc05537 camera. […] Every cell was imaged at multiple planes. In order to analyze the images in a quantitatively, a projection of maximum intensity was created. To measure staining intensity, every assessed region was normalized to an equal-size region in the background (outside the area of interest). The intensity score was generated by dividing the intensity in the area of interest by that of the background.
(§3) Drug treatments: Ovaries were collected and dissected in L-15 medium supplemented with 200 um IBMX to prevent meiotic progression as described above. Prophase I arrested oocytes were collected using a Stripper as described above. […]

H3K9me2 = H3K9me2 staining in treated young oocytes; conditions: 2-month-old oocytes, Chaetocin 0.5 μM 18 h, chromosome spreads at metaphase of MI
Procedure: Chromosome spread and immunofluorescence: Prophase I arrested oocytes were collected from ovaries as above and incubated for 6 hours to reach the first prophase or for 17 hours to reach second meiosis prophase as described above. Matured oocytes were washed in M2 medium and then in acidic Tyrode's Solution to remove the Zona Pellucida. 15 min before the desired time for chromosome spread, oocytes were kept in hypotonic solution, composed of FBS (F7524) diluted in DDW in 1:1 ratio. Oocytes were then spread in spreading solution (1% PFA buffered to 9.2 pH, supplemented with 0.15% Triton X-100and 0.03% […]) on Superfrost plus slides (32090003). To assess ploidy, prophase II spreads were stained with Hoechst to visualize chromatin and CREST to visualize the centromeres, and the imaged chromosome were manually counted.
In situ immunofluorescence: Permeabilization was performed using 0.1% Triton X-100. […]
Imaging and quantification: Oocytes were imaged using the Ti-Eclipse Nikon system, with an Andor Zyla nsc05537 camera. […] In order to analyze the images in a quantitatively, a projection of maximum intensity was created. To measure staining intensity, every assessed region was normalized to an equal-size region in the background (outside the area of interest). […]

L1-encoded ORF1p = test: In situ immunofluorescence for L1-ORF1p in treated young oocytes; conditions: young MII oocytes, Chaetocin, FIG. 7B
Procedure: as §1, §2, §3

With `CN1C(=O)[C@@]23C[C@]4([C@]56C[C@@]78SS[C@@](CO)(C(=O)N7[C@H]5Nc5ccccc56)N(C)C8=O)c5ccccc5N[C@@H]4N2C(=O)[C@]1(CO)SS3` [Chaetocin] the dsRNA staining (dsRNA) was “significant increase”, the “in situ staining for H3K4me3” value (H3K4me3) was “no significant change” and the “staining for H3K9me2” value (H3K9me2) was “decreased”. The “L1-encoded ORF1p staining intensity” value (L1-encoded ORF1p) was “increase in staining intensity”.
